From PMC13254595
These are yes or no findings as the source states them, for the method shown. Binding seen in cells or lysates may run through a third protein. Some entries that bind do so weakly or less than the wild type.

Assays:
[1] = target: T1, iron regulatory protein 1 (IRP1) (human (endogenous in PANC-1 and Patu-8988)) (UniProt P21399); experiment: co-IP; total protein of PANC-1 and Patu-8988 cells; IRP1 and ARID3A antibodies on protein A/G beads, 1 h at room temperature, Western blot; also with or without pre-treatment with hemin (binding increased) or desferroxamine (binding inhibited)
T1 sequence: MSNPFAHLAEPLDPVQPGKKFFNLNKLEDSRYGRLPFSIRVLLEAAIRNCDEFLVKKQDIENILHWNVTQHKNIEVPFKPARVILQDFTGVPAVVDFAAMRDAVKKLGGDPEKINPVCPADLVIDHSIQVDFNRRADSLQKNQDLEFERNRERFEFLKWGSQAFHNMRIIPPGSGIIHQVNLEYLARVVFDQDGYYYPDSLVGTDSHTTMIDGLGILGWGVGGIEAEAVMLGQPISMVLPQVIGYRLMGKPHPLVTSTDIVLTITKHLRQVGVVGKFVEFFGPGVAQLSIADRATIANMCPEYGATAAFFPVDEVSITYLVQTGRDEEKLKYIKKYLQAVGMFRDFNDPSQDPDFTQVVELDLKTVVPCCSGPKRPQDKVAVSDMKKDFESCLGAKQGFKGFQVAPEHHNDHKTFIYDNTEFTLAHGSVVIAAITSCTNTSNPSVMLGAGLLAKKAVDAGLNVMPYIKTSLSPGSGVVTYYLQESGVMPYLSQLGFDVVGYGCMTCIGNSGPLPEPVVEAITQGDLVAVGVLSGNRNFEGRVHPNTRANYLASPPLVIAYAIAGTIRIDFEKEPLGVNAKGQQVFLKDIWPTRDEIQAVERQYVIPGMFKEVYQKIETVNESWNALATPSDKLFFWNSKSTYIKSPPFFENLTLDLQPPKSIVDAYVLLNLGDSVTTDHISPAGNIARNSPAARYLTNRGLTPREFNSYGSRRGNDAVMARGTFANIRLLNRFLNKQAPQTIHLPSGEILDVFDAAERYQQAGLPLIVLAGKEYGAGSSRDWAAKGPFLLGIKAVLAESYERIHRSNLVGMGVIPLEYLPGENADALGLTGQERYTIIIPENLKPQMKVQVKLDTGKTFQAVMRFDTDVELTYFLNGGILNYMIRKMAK

[2] = target: T1, iron regulatory protein 1 (IRP1) (human (endogenous in PANC-1 and Patu-8988)); experiment: co-IP; cytoplasmic protein of PANC-1 and Patu-8988 cells, with or without hemin; IRP1 and ARID3A antibodies on protein A/G beads, Western blot
[3] = target: T1, iron regulatory protein 1 (IRP1) (human (endogenous in PANC-1 and Patu-8988)); experiment: co-IP; nuclear protein of PANC-1 and Patu-8988 cells, iron overload (hemin); IRP1 and ARID3A antibodies on protein A/G beads, Western blot

B1: A + T rich interaction domain protein 3a (ARID3A) (protein, UniProt Q99856 1-593)
chain: MKLQAVMETLLQRQQRARQELEARQQLPPDPPAAPPGRARAAPDEDREPESARMQRAQMAALAAMRAAAAGLGHPASPGGSEDGPPGSEEEDAAREGTPGSPGRGREGPGEEHFEDMASDEDMKPKWEEEEMEEDLGEDEEEEEEDYEDEEEEEDEEGLGPPGPASLGTTALFPRKAQPPQAFRGDGVPRVLGGQERPGPGPAHPGGAAHVAPQLQPPDHGDWTYEEQFKQLYELDGDPKRKEFLDDLFSFMQKRGTPVNRIPIMAKQVLDLFMLYVLVTEKGGLVEVINKKLWREITKGLNLPTSITSAAFTLRTQYMKYLYPYECEKRGLSNPNELQAAIDSNRREGRRQSFGGSLFAYSPGGAHGMLSSPKLPVSSLGLAASTNGSSITPAPKIKKEEDSAIPITVPGRLPVSLAGHPVVAAQAAAVQAAAAQAAVAAQAAALEQLREKLESAEPPEKKMALVADEQQRLMQRALQQNFLAMAAQLPMSIRINSQASESRQDSAVNLTGTNGSNSISMSVEINGIMYTGVLFAQPPAPTPTSAPNKGGGGGGGSSSNAGGRGGNTGTSGGQAGPAGLSTPSTSTSNNSLP
For B1, the binding [1] was “binds”, the binding [2] was “no binding (condition: cytoplasmic protein fraction)” and the binding [3] was “binds”.
